# Measured values taken from patent publication US10905757B2, “Cross-reactive T cell epitopes of HIV, SIV, and FIV for vaccines in humans and cats” (priority 2012, dated 2021).
# Part of at least one peptide drawing is inferred or uncertain, most often the ends. Ends that are not written are not given here.
# Legend:
# [1] = test system: CD3+CD8+ T cells from FIV-vaccinated cats; test: CFSE-proliferation, CD8+ T cells from FIV-vaccinated cats; assay type: cell-based, cat; conditions: for Proliferation (CFSE^low) CD8^+ T cells: prime 1x IWV, post-second MAP boost, peptide or MAP as culture stimulant, >2 positive
# Excerpt: FIGS. 32A and 32B. T-cell proliferation responses to FIV p24 peptide pools by vaccinated cats. […] (FIG. 32A) and CD3^+CD8^+ (FIG. 32B) T-cell proliferation responses are shown for prototype FIV-vaccinated cats. The FIV vaccinated cats were semi-inbred cats with blue, dark red, and pink/green bars from different MHC-lineage colonies. The semi-inbred cats with light pink and green bars are from the same […] lineage. Pools Fp9 and Fp14 are recognized by both HIV^+ subjects and vaccinated cats (i.e., evolutionarily conserved [EC] epitopes) but pools Fp3 and Fp4 are not recognized by HIV^+ subjects (i.e., non-EC epitopes). The IFNγ responses of these cats were either low or below the cut-off threshold of 50 SFU/1×10^6 PBMC. The peptides that stimulated the most proliferation responses: non-EC peptide Fp4-3 in pool Fp4 and EC peptide Fp14-1 in pool Fp14 were used in in vivo study below (FIG. 34).
# FIGS. 33A-33C. IFNγ and T-cell proliferation responses to Fp9 and Fp14 by the FIV-vaccinated cats and FIV-infected cats. The T cells or PBMC from 32 FIV-vaccinated cats were stimulated with either Fp9 or Fp14 and evaluated for proliferation (FIG. 33A) or IFNγ (FIG. 33B) responses. In addition, the PBMC from 32 FIV-infected cats at 22-52 weeks of infection and 20 HIV-1 p24-immunized cats were tested for IFNγ responses to the same peptide pools (FIG. 33B). Three types of laboratory cats were used in these studies: semi-inbred line 1 (Semi-Inbred 1), semi-inbred line 2 (Semi-Inbred 2), and outbred cats (Outbred) from laboratory cat vendors. Semi-inbred cats have been inbred for 3-5 generations with defined feline leukocyte antigen (FLA) alleles and are divided into two FLA haplotype lines. FIV vaccine consisted of prototype dual-subtype FIV vaccine (Coleman et al. 2014). The insert in each panel defines the numbers of each type of cats as well as vaccination (Vac.) or infection (Infect.) status. The number of cat responders used varies between the analyses performed for the individual Fp14 peptides (FIG. 33C, left for IFNγ and right for proliferation).
# Peptide Fp4-3 (left), peptide Fp14-1 (middle) and MAP1 [right] were culture stimulants. IL2 and IFNγ ELISpot results of >50 spot forming units (SFU/10^6 PBMC) and CFSE-proliferation of >2 are considered positive (bolded). The prime-boost vaccination induced IL2 responses in 3 of 4 cats and IFNγ response in one. Larger responses were induced by MAP1 than individual peptides in culture.
# PBMC from HIV− subjects = test: IFNγ ELISpot, PBMC from HIV− (seronegative control) subjects; assay type: cell-based, human; conditions: HIV− control subjects
sequence,measurement,setting,value
DQEQNTAEVKLYLK [Fp14-1],Proliferation (CFSE^low) CD8^+ T cells,"[1]; cat DVB, boost-1 MAP1b, boost-2 MAP1b",12
same,Proliferation (CFSE^low) CD8^+ T cells,"[1]; cat DVD, boost-1 MAP1, boost-2 MAP1",0
same,Proliferation (CFSE^low) CD8^+ T cells,"[1]; cat QVQ, boost-1 MAP1b, boost-2 MAP1b",6
same,Proliferation (CFSE^low) CD8^+ T cells,"[1]; cat QVW, boost-1 MAP1, boost-2 MAP1",5
KKKSGKWRMLIDFRV [F3-3],CD8+ T-cell (T-cell) proliferation in FIV-vaccinated cats (in words),[1],strong
same,IFNγ response of PBMC from HIV− subjects (in words),PBMC from HIV− subjects,no normal (HIV-negative) individuals responded
KLYLKQSLSIANA [Fp14-4],CD8+ T-cell (T-cell) proliferation in FIV-vaccinated cats (in words),[1],strong
WRMLIDFRVLNKL [F3-4],CD8+ T-cell (T-cell) proliferation in FIV-vaccinated cats (in words),[1],strong
